# The other results are listed elsewhere or left out.
# Protein sequences, listed by entry. Tags and fused reporters are not part of them. Lines headed by an entry give the natural chain unless they say otherwise; changes in a name come on top.
# UniProt Q86TM6, whole entry, looked up: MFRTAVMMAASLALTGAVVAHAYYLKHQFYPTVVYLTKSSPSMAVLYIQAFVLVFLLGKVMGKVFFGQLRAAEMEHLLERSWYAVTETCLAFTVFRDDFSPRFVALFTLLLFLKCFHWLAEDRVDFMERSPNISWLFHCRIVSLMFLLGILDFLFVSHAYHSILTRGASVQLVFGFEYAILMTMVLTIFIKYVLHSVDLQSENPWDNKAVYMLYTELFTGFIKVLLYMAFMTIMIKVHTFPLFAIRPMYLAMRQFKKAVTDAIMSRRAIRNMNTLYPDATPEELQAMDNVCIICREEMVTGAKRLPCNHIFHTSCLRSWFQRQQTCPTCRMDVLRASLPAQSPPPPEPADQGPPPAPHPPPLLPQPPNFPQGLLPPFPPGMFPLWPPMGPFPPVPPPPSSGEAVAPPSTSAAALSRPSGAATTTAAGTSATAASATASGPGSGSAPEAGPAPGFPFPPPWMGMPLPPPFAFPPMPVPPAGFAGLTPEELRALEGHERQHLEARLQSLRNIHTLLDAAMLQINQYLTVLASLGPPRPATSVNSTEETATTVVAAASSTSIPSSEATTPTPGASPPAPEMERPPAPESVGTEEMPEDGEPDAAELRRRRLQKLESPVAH
# UniProt O00506, whole entry, looked up: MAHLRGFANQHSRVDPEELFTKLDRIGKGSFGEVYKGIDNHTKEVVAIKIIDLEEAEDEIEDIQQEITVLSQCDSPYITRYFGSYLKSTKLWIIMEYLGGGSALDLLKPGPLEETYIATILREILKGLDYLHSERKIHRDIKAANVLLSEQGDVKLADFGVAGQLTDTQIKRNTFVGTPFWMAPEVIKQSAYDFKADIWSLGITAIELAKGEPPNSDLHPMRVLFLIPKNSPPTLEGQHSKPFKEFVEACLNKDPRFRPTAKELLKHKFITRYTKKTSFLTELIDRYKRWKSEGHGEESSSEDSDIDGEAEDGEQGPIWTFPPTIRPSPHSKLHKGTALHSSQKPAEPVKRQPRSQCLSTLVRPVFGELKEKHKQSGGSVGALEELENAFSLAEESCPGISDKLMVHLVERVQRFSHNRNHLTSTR
# UniProt Q9P289: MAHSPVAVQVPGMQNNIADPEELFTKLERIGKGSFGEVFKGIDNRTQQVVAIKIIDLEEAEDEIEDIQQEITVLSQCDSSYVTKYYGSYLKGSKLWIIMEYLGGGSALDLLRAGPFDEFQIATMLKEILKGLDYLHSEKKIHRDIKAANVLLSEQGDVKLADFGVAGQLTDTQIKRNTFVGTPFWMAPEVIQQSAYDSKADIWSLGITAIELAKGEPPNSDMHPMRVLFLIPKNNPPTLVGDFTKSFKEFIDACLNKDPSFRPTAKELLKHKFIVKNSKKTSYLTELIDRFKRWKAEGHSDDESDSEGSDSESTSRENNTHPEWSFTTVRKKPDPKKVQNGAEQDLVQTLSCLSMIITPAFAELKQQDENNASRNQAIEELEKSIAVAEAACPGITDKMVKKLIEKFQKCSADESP
# UniProt P46977: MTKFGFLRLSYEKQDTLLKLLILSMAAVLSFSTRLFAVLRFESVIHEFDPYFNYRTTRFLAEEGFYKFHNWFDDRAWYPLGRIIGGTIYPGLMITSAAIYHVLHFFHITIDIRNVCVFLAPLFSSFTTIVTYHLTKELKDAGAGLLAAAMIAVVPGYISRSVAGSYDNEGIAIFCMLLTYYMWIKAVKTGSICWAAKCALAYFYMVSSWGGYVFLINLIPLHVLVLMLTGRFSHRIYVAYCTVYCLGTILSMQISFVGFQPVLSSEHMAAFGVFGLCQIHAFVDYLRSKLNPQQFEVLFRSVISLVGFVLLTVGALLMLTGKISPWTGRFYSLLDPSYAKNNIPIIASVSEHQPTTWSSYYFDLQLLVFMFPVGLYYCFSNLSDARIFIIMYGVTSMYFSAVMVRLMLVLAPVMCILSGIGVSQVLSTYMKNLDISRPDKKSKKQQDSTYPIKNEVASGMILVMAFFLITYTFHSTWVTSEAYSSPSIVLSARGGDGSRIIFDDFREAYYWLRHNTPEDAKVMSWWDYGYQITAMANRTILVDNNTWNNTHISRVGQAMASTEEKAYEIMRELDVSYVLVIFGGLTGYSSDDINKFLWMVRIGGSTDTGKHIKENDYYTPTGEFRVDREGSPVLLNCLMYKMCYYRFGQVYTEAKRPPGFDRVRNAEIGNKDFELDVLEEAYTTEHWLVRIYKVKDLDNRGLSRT
# UniProt Q7RTN6: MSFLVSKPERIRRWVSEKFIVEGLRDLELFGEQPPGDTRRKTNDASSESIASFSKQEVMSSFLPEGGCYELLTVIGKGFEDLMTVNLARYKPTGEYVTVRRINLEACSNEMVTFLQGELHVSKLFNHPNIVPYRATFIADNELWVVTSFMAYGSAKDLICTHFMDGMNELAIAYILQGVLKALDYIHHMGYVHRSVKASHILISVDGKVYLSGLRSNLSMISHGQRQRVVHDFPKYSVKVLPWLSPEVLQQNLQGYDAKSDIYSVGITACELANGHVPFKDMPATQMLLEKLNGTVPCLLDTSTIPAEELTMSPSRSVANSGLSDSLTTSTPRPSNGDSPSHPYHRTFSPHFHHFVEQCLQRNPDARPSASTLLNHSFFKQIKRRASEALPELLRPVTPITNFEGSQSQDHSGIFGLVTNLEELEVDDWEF
# UniProt P61764, whole entry, looked up: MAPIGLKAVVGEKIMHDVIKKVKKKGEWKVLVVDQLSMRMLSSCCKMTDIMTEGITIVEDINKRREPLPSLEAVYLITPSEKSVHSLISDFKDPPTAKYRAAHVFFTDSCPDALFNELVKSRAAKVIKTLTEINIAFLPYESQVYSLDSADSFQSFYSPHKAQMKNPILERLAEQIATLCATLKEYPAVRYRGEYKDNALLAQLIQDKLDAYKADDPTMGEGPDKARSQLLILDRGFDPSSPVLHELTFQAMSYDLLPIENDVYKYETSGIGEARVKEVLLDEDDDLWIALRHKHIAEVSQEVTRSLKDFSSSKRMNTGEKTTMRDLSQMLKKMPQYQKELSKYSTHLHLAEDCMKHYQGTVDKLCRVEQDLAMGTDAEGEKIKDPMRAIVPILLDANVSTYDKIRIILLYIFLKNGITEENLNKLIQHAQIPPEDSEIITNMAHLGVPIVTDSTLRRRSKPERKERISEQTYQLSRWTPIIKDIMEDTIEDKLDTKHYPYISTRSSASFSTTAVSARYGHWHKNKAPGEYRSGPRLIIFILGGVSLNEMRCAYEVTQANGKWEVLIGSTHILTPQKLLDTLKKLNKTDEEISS
# UniProt O15260: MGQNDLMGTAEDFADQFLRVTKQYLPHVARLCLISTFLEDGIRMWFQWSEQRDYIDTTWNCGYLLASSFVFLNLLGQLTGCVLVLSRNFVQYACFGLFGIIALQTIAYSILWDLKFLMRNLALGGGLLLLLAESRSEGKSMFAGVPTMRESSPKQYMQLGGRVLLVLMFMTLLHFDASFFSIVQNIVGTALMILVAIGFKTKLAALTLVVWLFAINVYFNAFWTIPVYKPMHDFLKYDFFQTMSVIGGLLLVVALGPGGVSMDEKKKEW
# UniProt Q9Y5B9, whole entry, looked up: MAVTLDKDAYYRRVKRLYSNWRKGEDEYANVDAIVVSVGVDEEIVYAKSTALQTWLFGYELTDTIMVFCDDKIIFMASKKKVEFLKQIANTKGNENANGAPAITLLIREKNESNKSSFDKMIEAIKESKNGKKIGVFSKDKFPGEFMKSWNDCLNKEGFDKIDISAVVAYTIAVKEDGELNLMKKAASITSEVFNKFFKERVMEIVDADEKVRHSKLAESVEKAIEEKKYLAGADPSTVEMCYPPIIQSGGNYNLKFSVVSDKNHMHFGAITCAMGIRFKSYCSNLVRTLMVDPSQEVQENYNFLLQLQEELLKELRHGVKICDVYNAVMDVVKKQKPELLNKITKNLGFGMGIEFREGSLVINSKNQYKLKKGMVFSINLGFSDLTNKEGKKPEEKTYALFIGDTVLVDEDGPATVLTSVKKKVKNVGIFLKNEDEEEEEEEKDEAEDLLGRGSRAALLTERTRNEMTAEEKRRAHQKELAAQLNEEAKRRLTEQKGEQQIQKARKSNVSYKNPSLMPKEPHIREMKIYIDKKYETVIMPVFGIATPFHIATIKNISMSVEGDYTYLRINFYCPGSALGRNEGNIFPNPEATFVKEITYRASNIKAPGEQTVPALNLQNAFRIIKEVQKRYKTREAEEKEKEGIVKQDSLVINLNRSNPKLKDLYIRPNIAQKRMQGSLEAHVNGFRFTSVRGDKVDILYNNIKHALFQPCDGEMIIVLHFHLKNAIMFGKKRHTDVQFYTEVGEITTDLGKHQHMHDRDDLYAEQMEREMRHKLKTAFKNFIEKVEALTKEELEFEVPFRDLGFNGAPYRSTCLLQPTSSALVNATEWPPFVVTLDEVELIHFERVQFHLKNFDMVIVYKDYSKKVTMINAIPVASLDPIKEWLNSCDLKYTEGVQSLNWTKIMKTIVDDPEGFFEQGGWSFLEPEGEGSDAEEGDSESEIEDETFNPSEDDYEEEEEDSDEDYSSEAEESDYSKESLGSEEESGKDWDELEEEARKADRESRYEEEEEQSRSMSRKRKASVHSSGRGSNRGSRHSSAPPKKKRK
# UniProt Q9NRL3: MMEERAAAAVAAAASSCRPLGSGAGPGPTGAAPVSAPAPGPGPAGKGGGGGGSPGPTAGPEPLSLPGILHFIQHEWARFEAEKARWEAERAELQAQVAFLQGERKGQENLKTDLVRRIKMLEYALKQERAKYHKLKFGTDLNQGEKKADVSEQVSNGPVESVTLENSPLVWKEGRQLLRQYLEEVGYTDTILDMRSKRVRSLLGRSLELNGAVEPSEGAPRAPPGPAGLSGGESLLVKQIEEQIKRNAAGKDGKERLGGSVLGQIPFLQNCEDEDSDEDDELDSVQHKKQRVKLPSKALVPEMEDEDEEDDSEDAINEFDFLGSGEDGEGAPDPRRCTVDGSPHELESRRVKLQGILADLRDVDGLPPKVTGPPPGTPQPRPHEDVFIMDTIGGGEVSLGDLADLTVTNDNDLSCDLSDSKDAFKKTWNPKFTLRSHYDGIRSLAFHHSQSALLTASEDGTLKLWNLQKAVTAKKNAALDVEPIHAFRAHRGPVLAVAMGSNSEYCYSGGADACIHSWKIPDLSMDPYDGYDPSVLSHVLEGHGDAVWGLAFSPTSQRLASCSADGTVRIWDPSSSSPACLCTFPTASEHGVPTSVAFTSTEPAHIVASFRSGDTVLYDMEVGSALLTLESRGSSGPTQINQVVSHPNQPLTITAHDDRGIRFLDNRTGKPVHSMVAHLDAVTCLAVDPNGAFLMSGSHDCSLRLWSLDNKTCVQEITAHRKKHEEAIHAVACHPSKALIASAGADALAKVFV
# UniProt Q96C24: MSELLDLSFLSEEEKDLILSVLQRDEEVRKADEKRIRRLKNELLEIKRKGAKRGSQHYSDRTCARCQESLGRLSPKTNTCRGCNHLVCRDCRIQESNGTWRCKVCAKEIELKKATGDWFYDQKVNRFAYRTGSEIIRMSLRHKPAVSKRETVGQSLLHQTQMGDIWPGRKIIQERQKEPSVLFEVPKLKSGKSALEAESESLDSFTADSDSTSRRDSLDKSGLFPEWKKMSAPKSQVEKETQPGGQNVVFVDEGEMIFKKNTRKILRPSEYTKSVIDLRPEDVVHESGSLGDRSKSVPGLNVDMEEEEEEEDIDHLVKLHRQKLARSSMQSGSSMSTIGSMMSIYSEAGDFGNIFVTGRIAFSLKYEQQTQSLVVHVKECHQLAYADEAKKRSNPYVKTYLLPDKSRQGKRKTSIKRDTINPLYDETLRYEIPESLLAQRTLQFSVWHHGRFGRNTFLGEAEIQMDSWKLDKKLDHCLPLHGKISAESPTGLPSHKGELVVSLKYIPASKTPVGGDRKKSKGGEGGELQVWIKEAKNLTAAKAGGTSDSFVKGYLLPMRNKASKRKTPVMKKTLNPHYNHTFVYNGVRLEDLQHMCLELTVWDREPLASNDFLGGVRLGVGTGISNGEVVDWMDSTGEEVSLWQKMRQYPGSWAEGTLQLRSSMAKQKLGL
# UniProt O15400: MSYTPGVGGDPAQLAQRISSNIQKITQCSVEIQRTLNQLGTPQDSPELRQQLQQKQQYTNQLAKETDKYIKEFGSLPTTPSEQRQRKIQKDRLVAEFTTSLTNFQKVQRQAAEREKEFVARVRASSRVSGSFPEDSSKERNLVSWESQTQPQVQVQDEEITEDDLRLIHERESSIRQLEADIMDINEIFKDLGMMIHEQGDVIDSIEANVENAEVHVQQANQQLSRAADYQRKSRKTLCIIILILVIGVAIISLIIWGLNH
# UniProt P56962: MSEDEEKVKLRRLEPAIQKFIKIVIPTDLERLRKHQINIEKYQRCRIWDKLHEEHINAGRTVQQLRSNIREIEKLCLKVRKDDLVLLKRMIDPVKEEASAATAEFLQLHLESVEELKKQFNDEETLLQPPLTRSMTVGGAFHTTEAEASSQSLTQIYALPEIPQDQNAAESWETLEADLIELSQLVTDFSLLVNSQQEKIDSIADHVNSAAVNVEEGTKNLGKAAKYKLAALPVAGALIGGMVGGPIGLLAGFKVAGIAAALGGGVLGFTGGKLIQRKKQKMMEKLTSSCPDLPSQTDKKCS
# UniProt P55854, whole entry, looked up: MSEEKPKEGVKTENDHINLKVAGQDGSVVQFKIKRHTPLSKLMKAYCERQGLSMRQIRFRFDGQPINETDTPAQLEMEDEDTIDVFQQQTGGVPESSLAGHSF
# Compound: Cc1cc(Nc2cc(N3CCN(C)CC3)nc(Sc3ccc(NC(=O)C4CC4)cc3)n2)n[nH]1 [tozasertib]
# Test: log2 fold change, soluble protein after heating vs DMSO (PISA); higher = thermal stabilisation; K562 lysate, 10 uM; active = over 0.2 and 3.5 SD of the protein, either way, in both replicates (recomputed)
# Outline: (§1)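 Quantification was by TMTpro 16plex LC-MS/MS with equalised channel sums, applied to the supernatant after 21,000xg for 90 min. Samples were crude K562 extract at 1 mg/mL protein in PBS pH 7.4 with 1 mM MgCl2, treated with 10 μM compound for 30 min, heated for 3 min across 48°C-58°C, pooled and brought to 0.5% NP-40 at 4°C. Values are log-two fold changes in thermal stability relative to solvent controls, from duplicates.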
row,Target,log2 fold change
1,STK38 (UniProt Q15208),inactive: 0.029
2,SYVN1 (UniProt Q86TM6),inactive: 0.018
3,STK25 (UniProt O00506),inactive: 0.033
4,STK26 (UniProt Q9P289),inactive: 0.005
5,STT3A (UniProt P46977),inactive: 0.017
6,STRADA (UniProt Q7RTN6),inactive: -0.031
7,STXBP1 (UniProt P61764),inactive: -0.038
8,STRIP2 (UniProt Q9ULQ0),inactive: -0.008
9,SURF4 (UniProt O15260),inactive: -0.022
10,SUPT16H (UniProt Q9Y5B9),inactive: 0.006
11,STRN4 isoform 3 (UniProt Q9NRL3),inactive: 0.003
12,SYTL4 (UniProt Q96C24),inactive: 0.052
13,STX8 (UniProt Q9UNK0),inactive: 0.05
14,SUOX (UniProt P51687),inactive: 0.07
15,STX7 (UniProt O15400),inactive: -0.036
16,STX17 (UniProt P56962),inactive: 0.001

# Compound: Cc1ccc(-n2nc(C(C)(C)C)cc2NC(=O)Nc2ccc(OCCN3CCOCC3)c3ccccc23)cc1 [doramapimod]
# Test: as above
# Outline: as §1
row,Target,log2 fold change
1,SUCLA2 (UniProt Q9P2R7),inactive: 0.036
2,TAB1 (UniProt Q15750),inactive: 0.016
3,STX5 (UniProt Q13190),inactive: 0.007
4,SYNGR2 (UniProt O43760),inactive: 0.07
5,STMN2 isoform 2 (UniProt Q93045),inactive: -0.069
6,TADA1 (UniProt Q96BN2),inactive: 0.001
7,STUB1 (UniProt Q9UNE7),inactive: 0.019
8,TAF10 (UniProt Q12962),inactive: -0.035
9,SUMF2 (UniProt Q8NBJ7),inactive: 0.017
10,STOM (UniProt P27105),inactive: 0.002
11,SURF1 (UniProt Q15526),inactive: -0.02
12,SYNCRIP (UniProt O60506),inactive: -0.028
13,STRN3 (UniProt Q13033),inactive: 0.021
14,STX16 isoform 2 (UniProt O14662),inactive: 0.039
15,STK11IP (UniProt Q8N1F8),inactive: 0.037
16,SUCLG1 (UniProt P53597),inactive: 0.072
17,STK39 (UniProt Q9UEW8),inactive: 0.032
18,STRAP isoform 2 (UniProt Q9Y3F4),inactive: -0.044
19,SUZ12 (UniProt Q15022),inactive: 0
20,SUMO3 isoform 2 (UniProt P55854),inactive: -0.077

row,Target,log2 fold change
1,TACC3 (UniProt Q9Y6A5),inactive: -0.056
2,SYNE2 isoform 2 (UniProt Q8WXH0),inactive: 0.183
3,SVIP (UniProt Q8NHG7),inactive: 0.021
4,STK38 (UniProt Q15208),inactive: -0.001
5,SYVN1 (UniProt Q86TM6),inactive: 0.046
6,STK25 (UniProt O00506),inactive: -0.081
7,STK26 (UniProt Q9P289),inactive: -0.036
8,STT3A (UniProt P46977),inactive: 0.042
9,STRADA (UniProt Q7RTN6),inactive: 0.047
10,STXBP1 (UniProt P61764),inactive: 0.015
11,STRIP2 (UniProt Q9ULQ0),inactive: -0.002
12,SURF4 (UniProt O15260),inactive: 0.024
13,SUPT16H (UniProt Q9Y5B9),inactive: 0.03
14,STRN4 isoform 3 (UniProt Q9NRL3),inactive: -0.034
15,SYTL4 (UniProt Q96C24),inactive: 0.051
16,STX8 (UniProt Q9UNK0),inactive: 0.081
17,SUOX (UniProt P51687),inactive: 0.006
18,STX7 (UniProt O15400),inactive: -0.002
19,STX17 (UniProt P56962),inactive: 0.014

# Compound: Cc1ccc(NC(=O)c2ccc(CN3CC[C@H](N(C)C)C3)c(C(F)(F)F)c2)cc1Nc1nccc(-c2cncnc2)n1 [bafetinib]
# Test: as above
# Outline: as §1
row,Target,log2 fold change
1,SUCLA2 (UniProt Q9P2R7),inactive: -0.04
2,TAB1 (UniProt Q15750),inactive: -0.044
3,STX5 (UniProt Q13190),inactive: -0.116
4,SYNGR2 (UniProt O43760),inactive: -0.091
5,STMN2 isoform 2 (UniProt Q93045),inactive: 0.058
6,TADA1 (UniProt Q96BN2),inactive: -0.002
7,STUB1 (UniProt Q9UNE7),inactive: -0.054
8,TAF10 (UniProt Q12962),inactive: 0.066
9,SUMF2 (UniProt Q8NBJ7),inactive: 0.053
10,STOM (UniProt P27105),inactive: -0.011
11,SURF1 (UniProt Q15526),inactive: -0.015
12,SYNCRIP (UniProt O60506),inactive: -0.008
13,STRN3 (UniProt Q13033),inactive: 0.088
14,STX16 isoform 2 (UniProt O14662),inactive: -0.027
15,STK11IP (UniProt Q8N1F8),inactive: -0.008
16,SUCLG1 (UniProt P53597),inactive: -0.026
17,STK39 (UniProt Q9UEW8),inactive: -0.03
18,STRAP isoform 2 (UniProt Q9Y3F4),inactive: 0.05
19,SUZ12 (UniProt Q15022),inactive: -0.113
20,SUMO3 isoform 2 (UniProt P55854),inactive: 0.016

row,Target,log2 fold change
1,TACC3 (UniProt Q9Y6A5),inactive: 0.007
2,SYNE2 isoform 2 (UniProt Q8WXH0),inactive: -0.194
3,SVIP (UniProt Q8NHG7),inactive: -0.008
4,STK38 (UniProt Q15208),inactive: -0.104
5,SYVN1 (UniProt Q86TM6),inactive: 0.006
6,STK25 (UniProt O00506),inactive: 0.001
7,STK26 (UniProt Q9P289),inactive: -0.015
8,STT3A (UniProt P46977),inactive: -0.031
9,STRADA (UniProt Q7RTN6),inactive: 0.01
10,STXBP1 (UniProt P61764),inactive: -0.024
11,STRIP2 (UniProt Q9ULQ0),inactive: -0.025
12,SURF4 (UniProt O15260),inactive: -0.044
13,SUPT16H (UniProt Q9Y5B9),inactive: 0.006
14,STRN4 isoform 3 (UniProt Q9NRL3),inactive: -0.028
15,SYTL4 (UniProt Q96C24),inactive: -0.082
16,STX8 (UniProt Q9UNK0),inactive: 0.104
17,SUOX (UniProt P51687),inactive: 0.029
18,STX7 (UniProt O15400),inactive: -0.006
19,STX17 (UniProt P56962),inactive: -0.071

# From the supplement of paper PMC10849652
